In US20100279318A1:
No constants are given. Whether binding was seen depends on the method and setting. Some binding calls cover weakened binding; strength is not graded here.

Tests used:
[1] = biological target: D2 dopamine receptor fused to GFP (D2-GFP) (Aequoria victoria) (UniProt P14416+P42212); experiment: NLS co-trafficking assay, co-transfected HEK cells, confocal microscopy
[2] = biological target: Dopamine D1 receptor fused to GFP (D1-GFP) (human; Aequoria victoria) (UniProt P21728+P42212); experiment: as above

Substance: Dopamine D1 receptor containing a NLS (D1-NLS) (from UniProt P21728 1-446)
- binding [1]: binds
- binding [2]: binds
